Data as given in patent publication US20030143712A1.
Results are given in words; binding and its absence hold for the method and conditions named. For part of these data: In cells and extracts the contact can be indirect. Some entries that bind do so weakly or less than the wild type. For part of these data: Tags and fused reporters may be left off the sequences shown. Each block holds one binder with its values, some of them ahead of it.

By UniProt entry, the sequences of proteins in these tests, tags left out.
UniProt O75376: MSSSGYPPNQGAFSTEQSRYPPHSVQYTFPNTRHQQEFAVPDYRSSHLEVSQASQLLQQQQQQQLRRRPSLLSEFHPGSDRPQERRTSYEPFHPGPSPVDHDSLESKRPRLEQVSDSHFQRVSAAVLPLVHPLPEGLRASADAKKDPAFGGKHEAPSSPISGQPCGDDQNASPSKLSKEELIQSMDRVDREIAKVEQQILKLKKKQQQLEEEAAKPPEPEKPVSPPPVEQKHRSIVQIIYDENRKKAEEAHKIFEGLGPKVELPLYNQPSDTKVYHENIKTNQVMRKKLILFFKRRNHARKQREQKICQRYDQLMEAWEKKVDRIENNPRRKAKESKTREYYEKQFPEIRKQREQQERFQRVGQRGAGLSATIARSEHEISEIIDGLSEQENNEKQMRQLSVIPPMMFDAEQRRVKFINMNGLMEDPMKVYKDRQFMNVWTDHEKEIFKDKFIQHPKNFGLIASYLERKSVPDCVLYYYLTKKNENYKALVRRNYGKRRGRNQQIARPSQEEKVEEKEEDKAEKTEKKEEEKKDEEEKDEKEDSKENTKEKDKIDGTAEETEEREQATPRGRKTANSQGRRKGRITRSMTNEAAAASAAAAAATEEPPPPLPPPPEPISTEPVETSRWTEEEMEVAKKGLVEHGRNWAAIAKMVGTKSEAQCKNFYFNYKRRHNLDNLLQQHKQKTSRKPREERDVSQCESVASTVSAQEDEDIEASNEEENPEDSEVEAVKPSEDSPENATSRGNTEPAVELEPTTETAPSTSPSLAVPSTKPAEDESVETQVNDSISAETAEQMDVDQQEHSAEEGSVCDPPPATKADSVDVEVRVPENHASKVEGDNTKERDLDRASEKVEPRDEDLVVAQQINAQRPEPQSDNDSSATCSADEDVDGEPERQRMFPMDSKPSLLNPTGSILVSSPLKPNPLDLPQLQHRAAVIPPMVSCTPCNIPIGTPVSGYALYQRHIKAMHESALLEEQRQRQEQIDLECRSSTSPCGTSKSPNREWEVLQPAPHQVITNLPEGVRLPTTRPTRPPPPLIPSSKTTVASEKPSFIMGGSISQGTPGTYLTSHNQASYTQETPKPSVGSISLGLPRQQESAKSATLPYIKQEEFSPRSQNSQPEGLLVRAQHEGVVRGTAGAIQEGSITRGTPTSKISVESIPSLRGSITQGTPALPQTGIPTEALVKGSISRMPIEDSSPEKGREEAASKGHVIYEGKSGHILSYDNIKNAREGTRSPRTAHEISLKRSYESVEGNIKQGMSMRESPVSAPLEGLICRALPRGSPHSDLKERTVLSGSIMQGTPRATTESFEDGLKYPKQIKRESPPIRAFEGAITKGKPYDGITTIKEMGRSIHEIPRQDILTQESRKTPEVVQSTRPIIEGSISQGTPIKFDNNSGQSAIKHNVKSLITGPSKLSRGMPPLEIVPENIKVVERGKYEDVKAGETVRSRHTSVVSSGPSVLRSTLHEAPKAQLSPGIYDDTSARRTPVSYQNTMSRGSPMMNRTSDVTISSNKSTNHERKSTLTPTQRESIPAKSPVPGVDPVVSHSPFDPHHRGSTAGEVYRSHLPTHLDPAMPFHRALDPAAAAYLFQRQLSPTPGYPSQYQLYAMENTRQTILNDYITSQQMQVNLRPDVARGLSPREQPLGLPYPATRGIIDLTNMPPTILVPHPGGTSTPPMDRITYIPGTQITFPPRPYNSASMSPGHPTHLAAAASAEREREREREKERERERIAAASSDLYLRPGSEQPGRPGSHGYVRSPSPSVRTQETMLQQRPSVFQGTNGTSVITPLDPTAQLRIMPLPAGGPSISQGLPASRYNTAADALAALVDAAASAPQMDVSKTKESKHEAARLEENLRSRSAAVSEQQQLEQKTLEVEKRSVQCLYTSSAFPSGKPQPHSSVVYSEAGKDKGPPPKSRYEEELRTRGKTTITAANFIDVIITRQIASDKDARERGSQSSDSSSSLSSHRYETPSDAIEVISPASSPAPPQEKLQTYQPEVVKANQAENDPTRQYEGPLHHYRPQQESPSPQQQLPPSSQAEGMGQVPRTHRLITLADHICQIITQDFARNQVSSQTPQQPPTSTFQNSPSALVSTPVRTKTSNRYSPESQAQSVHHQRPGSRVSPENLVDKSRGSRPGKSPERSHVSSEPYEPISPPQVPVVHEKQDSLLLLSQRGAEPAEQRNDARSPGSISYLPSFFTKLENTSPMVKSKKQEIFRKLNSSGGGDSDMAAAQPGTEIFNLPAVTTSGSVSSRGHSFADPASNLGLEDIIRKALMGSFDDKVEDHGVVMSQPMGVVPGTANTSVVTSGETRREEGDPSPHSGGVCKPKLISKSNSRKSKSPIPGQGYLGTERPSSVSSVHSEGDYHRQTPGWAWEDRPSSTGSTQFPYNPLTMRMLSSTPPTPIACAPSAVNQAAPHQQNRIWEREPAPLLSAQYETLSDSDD
UniProt Q9Y618: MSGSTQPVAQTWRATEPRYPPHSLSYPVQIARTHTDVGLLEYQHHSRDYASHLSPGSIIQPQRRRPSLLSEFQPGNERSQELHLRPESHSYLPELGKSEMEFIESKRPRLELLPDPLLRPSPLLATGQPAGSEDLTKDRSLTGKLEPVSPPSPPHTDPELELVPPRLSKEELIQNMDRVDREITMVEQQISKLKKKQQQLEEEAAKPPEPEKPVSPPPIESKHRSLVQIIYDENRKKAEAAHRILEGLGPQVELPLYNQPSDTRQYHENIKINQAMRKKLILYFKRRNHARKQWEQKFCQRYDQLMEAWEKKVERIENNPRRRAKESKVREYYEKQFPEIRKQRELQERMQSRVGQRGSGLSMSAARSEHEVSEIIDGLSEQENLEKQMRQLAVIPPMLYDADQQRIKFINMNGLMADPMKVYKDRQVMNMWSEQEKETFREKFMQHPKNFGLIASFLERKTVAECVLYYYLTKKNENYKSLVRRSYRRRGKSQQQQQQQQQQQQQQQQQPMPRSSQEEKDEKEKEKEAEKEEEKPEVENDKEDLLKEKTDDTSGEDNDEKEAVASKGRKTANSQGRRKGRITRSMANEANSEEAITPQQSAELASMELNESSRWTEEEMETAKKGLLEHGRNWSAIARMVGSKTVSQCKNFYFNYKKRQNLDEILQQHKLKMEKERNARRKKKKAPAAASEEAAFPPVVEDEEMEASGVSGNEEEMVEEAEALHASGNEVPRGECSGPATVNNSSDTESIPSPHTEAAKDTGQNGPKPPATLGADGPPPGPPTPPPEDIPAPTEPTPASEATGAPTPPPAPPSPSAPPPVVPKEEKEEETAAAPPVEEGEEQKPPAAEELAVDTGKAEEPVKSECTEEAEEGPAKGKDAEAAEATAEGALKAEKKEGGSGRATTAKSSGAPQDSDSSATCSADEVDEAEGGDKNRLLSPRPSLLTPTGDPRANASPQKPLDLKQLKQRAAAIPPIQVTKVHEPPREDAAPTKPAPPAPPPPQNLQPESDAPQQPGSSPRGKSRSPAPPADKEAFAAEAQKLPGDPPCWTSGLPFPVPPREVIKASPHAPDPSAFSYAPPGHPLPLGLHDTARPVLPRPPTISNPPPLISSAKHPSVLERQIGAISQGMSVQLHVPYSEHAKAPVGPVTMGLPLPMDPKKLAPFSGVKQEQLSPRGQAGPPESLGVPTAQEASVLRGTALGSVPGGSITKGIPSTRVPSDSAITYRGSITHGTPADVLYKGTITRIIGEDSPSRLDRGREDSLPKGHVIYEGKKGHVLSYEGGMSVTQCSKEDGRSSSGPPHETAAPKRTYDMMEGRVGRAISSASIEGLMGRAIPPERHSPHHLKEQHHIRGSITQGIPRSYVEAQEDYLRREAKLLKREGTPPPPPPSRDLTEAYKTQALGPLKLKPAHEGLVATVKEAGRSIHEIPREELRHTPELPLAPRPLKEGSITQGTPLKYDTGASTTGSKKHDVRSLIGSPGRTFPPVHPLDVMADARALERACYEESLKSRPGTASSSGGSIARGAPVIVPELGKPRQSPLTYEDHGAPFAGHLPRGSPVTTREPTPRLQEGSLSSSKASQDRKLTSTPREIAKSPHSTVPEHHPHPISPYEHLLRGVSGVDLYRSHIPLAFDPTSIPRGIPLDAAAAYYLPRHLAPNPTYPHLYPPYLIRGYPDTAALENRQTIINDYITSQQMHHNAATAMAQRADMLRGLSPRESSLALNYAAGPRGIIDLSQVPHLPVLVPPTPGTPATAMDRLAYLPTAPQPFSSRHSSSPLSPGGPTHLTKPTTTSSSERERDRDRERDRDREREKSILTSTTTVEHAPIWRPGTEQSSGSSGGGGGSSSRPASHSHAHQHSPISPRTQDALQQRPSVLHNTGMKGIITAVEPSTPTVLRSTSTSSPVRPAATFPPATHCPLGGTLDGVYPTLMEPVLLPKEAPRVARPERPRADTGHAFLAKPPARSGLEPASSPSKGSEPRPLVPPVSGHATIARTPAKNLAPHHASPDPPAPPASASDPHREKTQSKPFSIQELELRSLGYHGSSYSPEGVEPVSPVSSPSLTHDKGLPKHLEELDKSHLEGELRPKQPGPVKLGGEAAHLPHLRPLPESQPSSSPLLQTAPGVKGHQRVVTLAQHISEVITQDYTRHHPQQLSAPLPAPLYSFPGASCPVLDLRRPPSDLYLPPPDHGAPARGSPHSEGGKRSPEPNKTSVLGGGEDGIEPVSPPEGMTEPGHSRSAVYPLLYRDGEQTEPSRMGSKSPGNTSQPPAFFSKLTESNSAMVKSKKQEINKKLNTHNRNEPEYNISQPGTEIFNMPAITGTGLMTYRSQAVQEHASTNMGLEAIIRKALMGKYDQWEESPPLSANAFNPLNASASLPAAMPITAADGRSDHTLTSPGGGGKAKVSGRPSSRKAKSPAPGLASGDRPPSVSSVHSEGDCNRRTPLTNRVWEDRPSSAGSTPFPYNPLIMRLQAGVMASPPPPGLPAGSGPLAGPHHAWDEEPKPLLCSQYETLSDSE
UniProt Q63943: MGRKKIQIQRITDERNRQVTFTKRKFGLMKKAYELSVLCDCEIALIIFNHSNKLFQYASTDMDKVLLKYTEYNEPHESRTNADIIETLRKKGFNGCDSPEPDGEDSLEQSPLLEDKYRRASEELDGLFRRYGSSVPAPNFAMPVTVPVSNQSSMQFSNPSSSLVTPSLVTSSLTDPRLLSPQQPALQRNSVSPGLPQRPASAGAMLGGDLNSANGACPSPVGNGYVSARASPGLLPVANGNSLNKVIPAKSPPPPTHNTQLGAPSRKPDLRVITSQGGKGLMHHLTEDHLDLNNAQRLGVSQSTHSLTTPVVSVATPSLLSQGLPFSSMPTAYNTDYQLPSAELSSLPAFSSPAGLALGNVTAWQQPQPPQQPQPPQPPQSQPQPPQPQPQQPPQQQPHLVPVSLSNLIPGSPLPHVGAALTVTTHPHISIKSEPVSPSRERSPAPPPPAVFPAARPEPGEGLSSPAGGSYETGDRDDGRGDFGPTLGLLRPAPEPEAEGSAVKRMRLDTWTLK
UniProt Q14814: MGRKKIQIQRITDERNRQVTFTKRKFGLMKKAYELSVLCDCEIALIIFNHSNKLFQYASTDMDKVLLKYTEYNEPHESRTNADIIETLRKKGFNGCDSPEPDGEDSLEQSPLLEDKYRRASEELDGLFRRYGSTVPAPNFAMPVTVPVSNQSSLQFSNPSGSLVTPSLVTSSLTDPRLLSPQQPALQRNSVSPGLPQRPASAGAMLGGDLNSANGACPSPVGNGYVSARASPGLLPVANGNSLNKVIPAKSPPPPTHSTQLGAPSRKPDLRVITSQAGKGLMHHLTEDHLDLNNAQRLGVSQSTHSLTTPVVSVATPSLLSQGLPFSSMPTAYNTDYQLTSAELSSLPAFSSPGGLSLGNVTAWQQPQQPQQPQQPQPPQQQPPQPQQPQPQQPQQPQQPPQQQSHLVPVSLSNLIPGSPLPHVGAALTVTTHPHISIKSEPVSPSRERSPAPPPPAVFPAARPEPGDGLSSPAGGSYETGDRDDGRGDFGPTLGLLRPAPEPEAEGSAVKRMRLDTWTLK

Key:
endogenous N-CoR [1] = target: endogenous N-CoR (UniProt O75376); test: co-immunoprecipitation, western blot
endogenous SMRT [2] = target: endogenous SMRT (UniProt Q9Y618); test: co-immunoprecipitation, western blot
[3] = target: endogenous MEF2D of DO11.10 T-cell hybridoma cells (UniProt Q63943); test: anti-FLAG immunoprecipitation from DO11.10 polyclonal cell lines
[4] = target: endogenous MEF2D of DO11.10 T-cell hybridoma cells (UniProt Q63943); test: anti-FLAG co-immunoprecipitation from stable polyclonal cell lines, western blot
[5] = target: endogenous MEF2D of human primary thymocytes (human) (UniProt Q14814); test: immunoprecipitation with anti-HDAC7 antiserum from human primary thymocyte extracts, western blot for MEF2D
endogenous N-CoR [6] = target: endogenous N-CoR (UniProt O75376); test: GST pull-down from cell extracts
endogenous SMRT [7] = target: endogenous SMRT (UniProt Q9Y618); test: GST pull-down from cell extracts

binding (endogenous N-CoR [1]): binds
binding (endogenous SMRT [2]): binds
binding [3]: binds
binding [4]: binds
B1: HDAC7-FLAG (full-length human HDAC7 with C-terminal FLAG tag, expressed in cells) (enzyme, not shown: small tags and cut ends)
chain: MDLRVGQRPPVEPPPEPTLLALQRPQRLHHHLFLAGLQQQRSVEPMRLSMDTPMPELQVGPQEQELRQLLHKDKSKRSAVASSVVKQKLAEVILKKQQAALERTVHPNSPGIPYRTLEPLETEGATRSMLSSFLPPVPSLPSDPPEHFPLRKTVSEPNLKLRYKPKKSLERRKNPLLRKESAPPSLRRRPAETLGDSSPSSSSTPASGCSSPNDSEHGPNPILGSEADSDRRTHPTLGPRGPILGSPHTPLFLPHGLEPEAGGTLPSRLQPILLLDPSGSHAPLLTVPGLGPLPFHFAQSLMTTERLSGSGLHWPLSRTRSEPLPPSATAPPPPGPMQPRLEQLKTHVQVIKRSAKPSEKPRLRQIPSAEDLETDGGGPGQVVDDGLEHRELGHGQPEARGPAPLQQHPQVLLWEQQRLAGRLPRGSTGDTVLLPLAQGGHRPLSRAQSSPAAPASLSAPEPASQARVLSSSETPARTLPFTTGLIYDSVMLKHQCSCGDNSRHPEHAGRIQSIWSRLQERGLRSQCECLRGRKASLEELQSVHSERHVLLYGTNPLSRLKLDNGKLAGLLAQRMFVMLPCGGVGVDTDTIWNELHSSNAARWAAGSVTDLAFKVASRELKNGFAVVRPPGHHADHSTAMGFCFFNSVAIACRQLQQQSKASKILIVDWDVHHGNGTQQTFYQDPSVLYISLHRHDDGNFFPGSGAVDEVGAGSGEGFNVNVAWAGGLDPPMGDPEYLAAFRIVVMPIAREFSPDLVLVSAGFDAAEGHPAPLGGYHVSAKCFGYMTQQLMNLAGGAVVLALEGGHDLTAICDASEACVAALLGNRVDPLSEEGWKQKPNLNAIRSLEAVIRVHSKYWGCMQRLASCPDSWVPRVPGADKEEVEAVTALASLSVGILAEDRPSEQLVEEEEPMNL

binding [3]: binds
B2: FLAG-tagged HDAC7-Q87AE91A (expressed in DO11.10 cells) (enzyme, not shown: small tags and cut ends)
chain: MDLRVGQRPPVEPPPEPTLLALQRPQRLHHHLFLAGLQQQRSVEPMRLSMDTPMPELQVGPQEQELRQLLHKDKSKRSAVASSVVKAKLAAVILKKQQAALERTVHPNSPGIPYRTLEPLETEGATRSMLSSFLPPVPSLPSDPPEHFPLRKTVSEPNLKLRYKPKKSLERRKNPLLRKESAPPSLRRRPAETLGDSSPSSSSTPASGCSSPNDSEHGPNPILGSEADSDRRTHPTLGPRGPILGSPHTPLFLPHGLEPEAGGTLPSRLQPILLLDPSGSHAPLLTVPGLGPLPFHFAQSLMTTERLSGSGLHWPLSRTRSEPLPPSATAPPPPGPMQPRLEQLKTHVQVIKRSAKPSEKPRLRQIPSAEDLETDGGGPGQVVDDGLEHRELGHGQPEARGPAPLQQHPQVLLWEQQRLAGRLPRGSTGDTVLLPLAQGGHRPLSRAQSSPAAPASLSAPEPASQARVLSSSETPARTLPFTTGLIYDSVMLKHQCSCGDNSRHPEHAGRIQSIWSRLQERGLRSQCECLRGRKASLEELQSVHSERHVLLYGTNPLSRLKLDNGKLAGLLAQRMFVMLPCGGVGVDTDTIWNELHSSNAARWAAGSVTDLAFKVASRELKNGFAVVRPPGHHADHSTAMGFCFFNSVAIACRQLQQQSKASKILIVDWDVHHGNGTQQTFYQDPSVLYISLHRHDDGNFFPGSGAVDEVGAGSGEGFNVNVAWAGGLDPPMGDPEYLAAFRIVVMPIAREFSPDLVLVSAGFDAAEGHPAPLGGYHVSAKCFGYMTQQLMNLAGGAVVLALEGGHDLTAICDASEACVAALLGNRVDPLSEEGWKQKPNLNAIRSLEAVIRVHSKYWGCMQRLASCPDSWVPRVPGADKEEVEAVTALASLSVGILAEDRPSEQLVEEEEPMNL

binding [5]: binds
B3: endogenous HDAC7 (human cells: cell-line lysates, human primary thymocytes) (enzyme)
chain: MDLRVGQRPPVEPPPEPTLLALQRPQRLHHHLFLAGLQQQRSVEPMRLSMDTPMPELQVGPQEQELRQLLHKDKSKRSAVASSVVKQKLAEVILKKQQAALERTVHPNSPGIPYRTLEPLETEGATRSMLSSFLPPVPSLPSDPPEHFPLRKTVSEPNLKLRYKPKKSLERRKNPLLRKESAPPSLRRRPAETLGDSSPSSSSTPASGCSSPNDSEHGPNPILGSEADSDRRTHPTLGPRGPILGSPHTPLFLPHGLEPEAGGTLPSRLQPILLLDPSGSHAPLLTVPGLGPLPFHFAQSLMTTERLSGSGLHWPLSRTRSEPLPPSATAPPPPGPMQPRLEQLKTHVQVIKRSAKPSEKPRLRQIPSAEDLETDGGGPGQVVDDGLEHRELGHGQPEARGPAPLQQHPQVLLWEQQRLAGRLPRGSTGDTVLLPLAQGGHRPLSRAQSSPAAPASLSAPEPASQARVLSSSETPARTLPFTTGLIYDSVMLKHQCSCGDNSRHPEHAGRIQSIWSRLQERGLRSQCECLRGRKASLEELQSVHSERHVLLYGTNPLSRLKLDNGKLAGLLAQRMFVMLPCGGVGVDTDTIWNELHSSNAARWAAGSVTDLAFKVASRELKNGFAVVRPPGHHADHSTAMGFCFFNSVAIACRQLQQQSKASKILIVDWDVHHGNGTQQTFYQDPSVLYISLHRHDDGNFFPGSGAVDEVGAGSGEGFNVNVAWAGGLDPPMGDPEYLAAFRIVVMPIAREFSPDLVLVSAGFDAAEGHPAPLGGYHVSAKCFGYMTQQLMNLAGGAVVLALEGGHDLTAICDASEACVAALLGNRVDPLSEEGWKQKPNLNAIRSLEAVIRVHSKYWGCMQRLASCPDSWVPRVPGADKEEVEAVTALASLSVGILAEDRPSEQLVEEEEPMNL

binding (endogenous N-CoR [6]): binds
binding (endogenous SMRT [7]): binds
B4: GST-HDAC7(aa 438-912) (enzyme, not shown: a dimerising Fc or GST)
chain: QGGHRPLSRAQSSPAAPASLSAPEPASQARVLSSSETPARTLPFTTGLIYDSVMLKHQCSCGDNSRHPEHAGRIQSIWSRLQERGLRSQCECLRGRKASLEELQSVHSERHVLLYGTNPLSRLKLDNGKLAGLLAQRMFVMLPCGGVGVDTDTIWNELHSSNAARWAAGSVTDLAFKVASRELKNGFAVVRPPGHHADHSTAMGFCFFNSVAIACRQLQQQSKASKILIVDWDVHHGNGTQQTFYQDPSVLYISLHRHDDGNFFPGSGAVDEVGAGSGEGFNVNVAWAGGLDPPMGDPEYLAAFRIVVMPIAREFSPDLVLVSAGFDAAEGHPAPLGGYHVSAKCFGYMTQQLMNLAGGAVVLALEGGHDLTAICDASEACVAALLGNRVDPLSEEGWKQKPNLNAIRSLEAVIRVHSKYWGCMQRLASCPDSWVPRVPGADKEEVEAVTALASLSVGILAEDRPSEQLVEEEEP

binding [4]: binds
B5: FLAG-tagged amino-terminus (aa 1-487) domain of HDAC7 (enzyme, not shown: small tags and cut ends)
chain: MDLRVGQRPPVEPPPEPTLLALQRPQRLHHHLFLAGLQQQRSVEPMRLSMDTPMPELQVGPQEQELRQLLHKDKSKRSAVASSVVKQKLAEVILKKQQAALERTVHPNSPGIPYRTLEPLETEGATRSMLSSFLPPVPSLPSDPPEHFPLRKTVSEPNLKLRYKPKKSLERRKNPLLRKESAPPSLRRRPAETLGDSSPSSSSTPASGCSSPNDSEHGPNPILGSEADSDRRTHPTLGPRGPILGSPHTPLFLPHGLEPEAGGTLPSRLQPILLLDPSGSHAPLLTVPGLGPLPFHFAQSLMTTERLSGSGLHWPLSRTRSEPLPPSATAPPPPGPMQPRLEQLKTHVQVIKRSAKPSEKPRLRQIPSAEDLETDGGGPGQVVDDGLEHRELGHGQPEARGPAPLQQHPQVLLWEQQRLAGRLPRGSTGDTVLLPLAQGGHRPLSRAQSSPAAPASLSAPEPASQARVLSSSETPARTLPFTTGLIY
